Measurements as given in article PMC5703867.

Biological target: CXCL8 (human)
Assay: ELISA; chemokines coated at 150 ng/well in 0.1 M carbonate pH 9.5, 4% BSA block, BKT130Fc at 0, 1, 10 and 50 µg/ml for 2 h at RT, detected with goat anti-human IgG HRP, O.D. 450 nm

- binding: no binding (tested: 50 µg/ml)
Binder: SIPSHSIHSAKAGGGSKG (Fc fusion) [BKT130Fc peptibody]

Results are given in words; binding and its absence hold for the method and conditions named.
